Experimental data taken from PubChem BioAssay AID1259415 (National Center for Advancing Translational Sciences (NCATS), 2018).
In all, about 410,000 compounds went through this assay and about 18,000 (4.4%) were called active. This list was built around the results that the source calls inconclusive (neither active nor inactive); the mix of calls is not that of the screen. Rule as the data show it: active = activity change below about -60%; inconclusive = no clear call, values can overlap the other calls; inactive = above about -39%.

assay: qHTS Assay for inhibitors of the human cytomegalovirus (HCMV); conditions: HFF cells, HCMV-luciferase reporter, 72 h; at 57.5 µM; hits give low values
In short: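 HFF cells seeded 16 h at 37C, treated with compounds, infected with luciferase-reporter HCMV at MOI 1 PFU/cell; luciferase read at 72 h post infection, normalized to buffer-only and Salinomycin controls.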
% is scaled to controls: 0 for no effect and ±100 for the full control effect.

| Compound | activity change, negative = inhibition |
| --- | --- |
| CC(C)Cc1c(O)nc(SCC(=O)N2CCCCCC2)[nH]c1=O | inconclusive: -42.8% |
| COc1ccccc1OCC(=O)Sc1ccc(C)cc1 | inactive: 21.3% |
| O=C(CCN1CCOCC1)c1ccccc1 | inconclusive: -53.7% |
| Cc1cccc(C(=O)Nc2cc(S(=O)(=O)N3CCOCC3)ccc2N2CCCCC2)c1 | inconclusive: -41% |
| Cc1c(NC(=O)CSc2nc3ccccc3n2C)c(=O)n(-c2ccccc2)n1C | inconclusive: -47.2% |
| CCN1CCN(C(=O)C2CCN(S(=O)(=O)c3ccc(Br)cc3)CC2)CC1 | inconclusive: -43.1% |
| CC(C)c1nc(SCC(=O)Nc2nc3c(s2)CCCC3)c2ccccc2n1 | inconclusive: -45.9% |
| CCOc1ccc(OCCCC(=O)N2CCN(S(=O)(=O)c3ccccc3C#N)CC2)cc1 | inconclusive: -44% |
| CSc1ccccc1C(=O)NCCc1ccc(S(=O)(=O)N2CCCCC2)cc1 | active: -102% |
| O=C(/C=C/c1cccc(Br)c1)NC1CCN(Cc2ccccc2)CC1 | inconclusive: -42% |
| CN1CCN(S(=O)(=O)c2ccc(Nc3ccc(F)cc3)c([N+](=O)[O-])c2)CC1 | inconclusive: -52.3% |
| O=C1c2ccccc2C(=O)N1CCc1c[nH]c2ccc(O)cc12 | inconclusive: -40.4% |
| CCCn1c(SCC(=O)NC2CC2)nnc1-c1ccccn1 | inactive: 6% |
| COc1ccc(C(=O)C(CCCCC(CN(C)C)C(=O)c2ccc(OC)cc2)CN(C)C)cc1 (centres undefined) | inconclusive: -42.4% |
| CCc1ccc2c(c1)NC(=O)C2(C)Cc1ccc(OC(F)(F)F)cc1 (centres undefined) | active: -75.3% |
| O=C(CCCCl)NC1=NN(c2ccccc2)C(=O)C1 | inactive: -30.2% |
| O=C(c1cccc(Cl)c1)C1CCCN(C(=O)c2ccc3c(c2)OCO3)C1 (centres undefined) | inactive: -11.8% |
| Nc1nonc1-n1nnc(C(=O)N/N=C\c2ccncc2)c1CN1CCCCC1 | inconclusive: -59.3% |
| CCOC(=O)/C=C/C(=O)Nc1ccc(S(=O)(=O)N2CCc3ccccc32)cc1 | inactive: 38.4% |
| O=C(COc1ccccc1)N1CCN(CC2CC3C=CC2C3)CC1 (centres undefined) | inconclusive: -53.6% |
| O=C(Nc1ccc(NC(=O)c2cccs2)cc1)c1ccc(Cl)cc1 | inactive: 1.71% |
| CCC1=Nc2cc(C(=O)NCCCOC(C)C)ccc2Sc2ccc(C)cc21 | active: -62.8% |
| CCN(Cc1ccccc1)C(=O)CCc1nc(CN2CCN(C(=O)c3ccc([N+](=O)[O-])cc3)CC2)no1 | inactive: 10.2% |
| C[C@]12CCCCC1=CC(=O)C1C2CC[C@@]2(C)C1C[C@@H](F)[C@@H]2O (some centres undefined) | inconclusive: -40.7% |

A section from the list above, as a working copy:

| Compound | activity change, negative = inhibition |
| --- | --- |
| Cc1c(NC(=O)CSc2nc3ccccc3n2C)c(=O)n(-c2ccccc2)n1C | inconclusive: -47.2% |
| CCN1CCN(C(=O)C2CCN(S(=O)(=O)c3ccc(Br)cc3)CC2)CC1 | inconclusive: -43.1% |
